# PubChem BioAssay AID504834 (National Center for Advancing Translational Sciences (NCATS), 2011)
# Screen size: about 320,000 compounds; about 22,000 (6.9%) were called active. This list was built around the results that the source calls inconclusive (neither active nor inactive); the mix of calls is not that of the screen. The call rests on the fitted dose curve; in most records, active means well fitted inhibition curve with a large enough effect; inconclusive means small, poorly fitted or top-dose-only effect, or another doubt; inactive means no such curve, though single readings can be large or run the other way. Where the call is inconclusive, the potency comes from a doubtful curve fit.
# Test: Primary qHTS for delayed death inhibitors of the malarial parasite plastid, 96 hour incubation
# Details: P. falciparum luciferase reporter growth; series mostly up to 28.7 µM
# How it was run: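 P. falciparum expressing integrated firefly luciferase, in erythrocytes at 2% hematocrit, 0.05% parasitemia, incubated with compounds 96 h at 37 C, 5% CO2. Growth inhibition read as loss of luminescence; two-generation exposure targets delayed-death apicoplast inhibitors.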
# Potency means the concentration at half of the fitted maximal effect.
row,SMILES,Potency
1,CSc1ccccc1C(=O)C1CCCN(C(=O)CCN2CCCO2)C1 (centres undefined),active: 5.22 µM
2,Cc1[nH]n(-c2ccccc2)c(=O)c1/C=N/NC(=O)c1ccccc1F,active: 2.33 µM
3,COC(=O)c1ccc(COc2ccc3c(C)c(C)c(=O)oc3c2)o1,"inconclusive: 4.15 µM [inhibitor, single point]"
4,CC(=O)Nc1cccc(C(=O)/C=C/c2cccs2)c1,"inconclusive: 8.28 µM [inhibitor, single point]"
5,Cn1c(C(=O)OC(C(=O)NC2CCCCC2)c2cccnc2)cc2sccc21 (centres undefined),"inconclusive: 13.1 µM [inhibitor, partial curve]"
6,C/C(=N\NC(=O)Cc1ccccc1)c1cccs1,inactive
7,CC(C)(C)c1cc(Cc2ccccc2)[nH]n1,inactive
8,Cc1cc(NC(=O)OC(C)C)ccc1-c1ccc(NC(=O)OC(C)C)cc1C,"inconclusive: 0.165 µM [inhibitor, full curve, poor fit]"
9,N#C/C(=C\C1=C(N2CCOCC2)C(=C/c2cccc([N+](=O)[O-])c2)/CC1)C(=O)Nc1ccccc1F,active: 9.28 µM
10,COc1ccc(/C=C2\N=C(SC)SC2=O)cc1OC,"inconclusive: 0.0023 µM [inhibitor, full curve, poor fit]"
11,O=C1CCN(N=Nc2cccc(Cl)c2)N1,"inconclusive: 18.5 µM [inhibitor, single point]"
12,Cn1c(=S)[nH]c2ccccc21,"inconclusive: 18.5 µM [inhibitor, single point]"
13,Nc1nc2nccc(-c3ccco3)n2n1,"inconclusive: 0.465 µM [inhibitor, full curve, poor fit]"
14,C=CCNC(=O)c1ccccc1Cl,inactive
15,Cc1ccc(C(=O)NCCN2C3=NC[C@H](C(C)C)N3C[C@H]2Cc2ccc(O)cc2)cc1Br,active: 2.62 µM
16,Cc1noc(C)c1-c1nc(CS(=O)(=O)c2ccc(Cl)cc2)no1,inactive
17,O=Cc1c(NCCN2CCOCC2)c2ccccc2[nH]c1=O,"inconclusive: 18.5 µM [inhibitor, single point]"
18,COc1cc(C2C3=C(Nc4nc(N)[nH]c(=O)c42)c2ccccc2C3=O)ccc1O (centres undefined),"inconclusive: 13.1 µM [inhibitor, single point]"
19,COc1ccc(S(=O)(=O)N2CCOCC2)cc1NC(=O)Cc1sc(C)nc1-c1ccc(F)cc1,"inconclusive: 10.4 µM [inhibitor, single point]"
20,COc1ccc(N=Cc2c(O)n(-c3ccc(OC)cc3)c(=O)c3ccccc23)cc1,"inconclusive: 8.28 µM [inhibitor, partial curve, poor fit]"
21,O=C(Nc1cc(S(=O)(=O)N2CCOCC2)ccc1N1CCCC1)c1cc(=O)[nH]c2ccccc12,"inconclusive: 18.5 µM [inhibitor, partial curve, poor fit]"
22,CCOc1ccc(-n2ccnc(SCC(=O)Nc3cccc(OC)c3)c2=O)cc1,"inconclusive: 0.0329 µM [inhibitor, full curve, poor fit]"
23,N#CCC(=O)N/N=C\c1cc(Br)ccc1OC/C=C/c1ccccc1,active: 2.94 µM

# Not a retest: 3 of the compounds above.
row,SMILES,Potency
20,COc1ccc(N=Cc2c(O)n(-c3ccc(OC)cc3)c(=O)c3ccccc23)cc1,"inconclusive: 8.28 µM [inhibitor, partial curve, poor fit]"
21,O=C(Nc1cc(S(=O)(=O)N2CCOCC2)ccc1N1CCCC1)c1cc(=O)[nH]c2ccccc12,"inconclusive: 18.5 µM [inhibitor, partial curve, poor fit]"
22,CCOc1ccc(-n2ccnc(SCC(=O)Nc3cccc(OC)c3)c2=O)cc1,"inconclusive: 0.0329 µM [inhibitor, full curve, poor fit]"

# (continued)

row,SMILES,Potency
1,CCC1CCCCN1C(=O)c1ccc([N+](=O)[O-])o1 (centres undefined),"inconclusive: 11.7 µM [inhibitor, partial curve, poor fit]"
2,CC1=C(C(N)=O)C(c2cccc(O)c2)n2nc(CCCO)nc2N1 (centres undefined),"inconclusive: 1.47 µM [inhibitor, full curve]"
3,COc1ccc(/C=C/C(=O)c2ccccc2)c(OC)c1,inactive
4,O=C1CSC(=Nc2ccc(O)cc2)N1c1ccc(O)cc1,active: 10.4 µM
5,CCc1nn(-c2ccccc2)c2c1-c1cc(OC)c(OC)cc1C1(N2)C(=O)Nc2ccccc21 (centres undefined),active: 2.62 µM
6,Clc1ncnc2scc(-c3ccccc3)c12,"inconclusive: 1.04 µM [inhibitor, full curve]"
7,Cc1cc(C)c2nc(SCCc3ccccc3)nc(C)c2c1,"inconclusive: 14.7 µM [inhibitor, single point]"
8,O=C(CSc1nnc(-c2ccccc2F)o1)NC1CCCCC1,"inconclusive: 2.33 µM [inhibitor, single point]"
9,Cc1ccc(NC2CCCN(C(=O)c3ccc4[nH]ccc4c3)C2)cc1C (centres undefined),active: 13.1 µM
10,COc1ccccc1N=Nc1ccc(O)c2ncccc12,inactive
11,COC(=O)[C@@H]1C[C@@]1(C)[C@@H](NP(=O)(c1ccccc1)c1ccccc1)c1ccccc1,"inconclusive: 18.5 µM [inhibitor, single point]"
12,CCN(CC)S(=O)(=O)c1ccc2c(c1)CC(C(=O)N1CCCC1)N2C(C)=O (centres undefined),"inconclusive: 0.294 µM [inhibitor, full curve, poor fit]"
13,CCCCOC(=O)c1ccc(S(N)(=O)=O)o1,"inconclusive: 18.5 µM [inhibitor, single point]"
14,CCOCCCN(C)C1CCN(C(=O)c2oc3ccccc3c2NC(=O)COc2ccc(F)cc2)CC1,"inconclusive: 0.0928 µM [inhibitor, full curve, poor fit]"
15,O=C(NC1CCC(O)CC1)c1cc(-c2ccc(Cl)cc2)nc2ccccc12 (centres undefined),"inconclusive: 18.5 µM [inhibitor, single point]"
16,CCc1cccc(C)c1NC(=O)COC(=O)C1CCN(S(=O)(=O)c2ccccc2)CC1,inactive
17,CC/C(=N/NC(=O)c1ccccc1)c1ccc(OCCN2CCOCC2)cc1,inactive
18,Cc1cc(-c2ccc(C)c(S(=O)(=O)NCCc3ccco3)c2)on1,"inconclusive: 10.4 µM [inhibitor, partial curve]"
19,CC(C(=O)NC1(C#N)CCCCC1)N(C)CC(=O)Nc1ccc(Cl)c(Cl)c1 (centres undefined),"inconclusive: 11.7 µM [inhibitor, partial curve, poor fit]"
20,Cc1cccc2cc(C(c3nnnn3C(C)(C)C)N(Cc3ccco3)CC3CCCO3)c(=O)[nH]c12 (centres undefined),"inconclusive: 9.28 µM [inhibitor, partial curve, poor fit]"
21,CCSc1nnc(NC(=O)CCCOc2ccc(C)cc2)s1,"inconclusive: 13.1 µM [inhibitor, single point]"
22,Cc1cc(C)c2oc(C(=O)N3CCN(Cc4ccccc4)CC3)cc(=O)c2c1,"inconclusive: 2.94 µM [inhibitor, single point]"
23,CC1(C)Cc2nc(NCCCO)c(C#N)cc2CO1,inactive

row,SMILES,Potency
1,CCCCCCNC(=O)CC(c1ccccc1)c1cc(Br)ccc1O (centres undefined),"inconclusive: 18.5 µM [inhibitor, single point]"
2,CSCCCNC(=S)Nc1ccc(N2CCOCC2)cc1,inactive
3,O=C(CCc1nnc(CCCc2ccccc2)o1)NCCc1ccco1,active: 9.28 µM
4,COC(=O)C1=C(N)c2c(F)cccc2C1(C#N)c1ccc(F)cc1 (centres undefined),"inconclusive: 20.8 µM [inhibitor, partial curve, poor fit]"
5,COC1CCCN(C(=O)c2ccc(OC3CCN(S(=O)(=O)N(C)C)CC3)cc2)C1 (centres undefined),"inconclusive: 18.5 µM [inhibitor, single point]"
6,Cc1ccccc1NC(=O)Nc1c(C)n(C)n(-c2ccccc2)c1=O,"inconclusive: 10.4 µM [inhibitor, single point]"
7,CC(NC(=S)Nc1ccccc1Cl)C(c1ccccc1)N1CCOCC1 (centres undefined),"inconclusive: 2.62 µM [inhibitor, partial curve, poor fit]"
8,Cc1nnc(SCC(=O)N2CCC(C(=O)Nc3nccs3)CC2)n1Cc1ccccc1,"inconclusive: 11.7 µM [inhibitor, partial curve, poor fit]"
9,Cc1ccc(/C=C2\C(=O)NC(=S)N(c3ccccc3F)C2=O)s1,inactive
10,O=Cc1c(-c2ccc(F)cc2)nc2ccccn12,inactive
11,Cc1ccc(S(=O)(=O)NCCN=Cc2ccc(N(C)C)cc2)cc1,active: 7.38 µM
12,COc1ccc(C2SCC(=O)N2c2ccc(C)cc2)cc1 (centres undefined),"inconclusive: 20.8 µM [inhibitor, single point]"
13,Cn1c(C(=O)N2CCN(Cc3ccccc3)CC2)cc2c(=O)n(C)c3ccccc3c21,"inconclusive: 18.5 µM [inhibitor, single point]"
14,N/C(=N\OC(=O)c1ccc(=O)n(Cc2ccc(Cl)cc2)c1)c1ccccn1,active: 13.1 µM
15,CCc1nnc(NS(=O)(=O)c2ccc(NC(=O)/C=C/C(=O)O)cc2)s1,"inconclusive: 4.15 µM [inhibitor, partial curve, poor fit]"
16,COc1ccc(CC(=O)Oc2ccc(C#N)cc2)cc1,"inconclusive: 18.5 µM [inhibitor, single point]"
17,Oc1ccc(-c2nc3c4c(ncn3n2)-c2ccccc2CC42CCCC2)cc1,inactive
18,Cc1ccc(S(=O)(=O)NCCC(=O)Nc2ccc(Cl)cc2C(=O)c2ccccc2)cc1,"inconclusive: 18.5 µM [inhibitor, single point]"
19,Cc1ccc(S(=O)(=O)N2CCN(c3nc(C)nc4sc5c(c34)CCC(C)C5)CC2)cc1 (centres undefined),active: 7.38 µM
20,CC(C)c1ccc(CN(C)C(=O)c2ccc(S(=O)(=O)NCc3ccco3)cc2)cc1,"inconclusive: 10.4 µM [inhibitor, single point]"
21,COc1cccc(NC(=O)N2CCC(NC(=O)c3ccco3)CC2)c1,"inconclusive: 13.1 µM [inhibitor, partial curve, poor fit]"
22,Cc1nc2nc(SCC(=O)c3ccc([N+](=O)[O-])cc3)[nH]c2cc1Br,"inconclusive: 14.7 µM [inhibitor, single point]"
23,Cc1nc2c(C(=O)NCc3cccs3)cnn2c(C)c1Cc1ccc(F)cc1,"inconclusive: 18.5 µM [inhibitor, single point]"
